Source: patent US20160175328A1, “COMPOSITIONS AND TREATMENTS OF HEART FAILURE IN NON-HUMAN MAMMAL ANIMALS” (CEVA SANTE ANIMALE SA, priority 2008, published 2016)

Test system: dogs in hyperaldosteronemia
Experiment: Model for assessing the anti-aldosterone activity (urinary Na/K after aldosterone injection)
Type: in vivo, dog
Details: N 15
Description: They have been tattooed in advance for easy identification and situated in stainless steel individual boxes.
A preliminary study was performed in order to determining the ED80 value for the natriuretic effect of aldosterone on its own.
The dogs described above were allocated to different treatment groups (A, B, C, D, and E) and a rest period was left between treatments.
A negative control group A only received the pharmaceutical excipient. The positive control group B only received 3 μg/kg of aldosterone. […] 200 g food was then given immediately after treatment.
The samples were frozen and kept in the dark at approx. −80° C. […] Also, the urine was collected during the time periods ranging from T0-T6h; T6h-T12h and T12h-T24h.
After calibration and count, the quantity of aldosterone present in the sample was thus determined once counted.
The sodium and potassium contents in urines were determined using […]. […] According to this method 500 μL plasma were mixed with ethyl acetate (80/20, V/V) as solvents. […] The compounds and the internal standard (i.e. methyl-testosterone) were separated on a Kromasil C18 column.
A statistical analysis was performed with the STATGRAPHICS Plus version 4.1 software (Manugestics, Inc., Rockville, Md., U.S.A.). The results were presented such as averages±SD; p<0.05 is considered as significant.

Row | Structure (SMILES) | Aldosterone levels at 6 h (group B, dosage 0, aldosterone 3 μg/kg) [pg/L] | Aldosterone levels at 6 h (group C, spironolactone dosage 0.8, aldosterone 3 μg/kg) [pg/L] | Aldosterone levels at 6 h (group D, spironolactone dosage 2, aldosterone 3 μg/kg) [pg/L] | Aldosterone levels at 6 h (group E, spironolactone dosage 8, aldosterone 3 μg/kg) [pg/L]
1 | C[C@]12CCC(=O)C=C1CC[C@@H]1[C@@H]2[C@@H](O)C[C@]2(C=O)[C@@H](C(=O)CO)CC[C@@H]12 [Aldosterone] | 239.1 ± 156.8 |  |  | 
2 | CC(=O)S[C@@H]1CC2=CC(=O)CC[C@]2(C)[C@H]2CC[C@@]3(C)[C@@H](CC[C@@]34CCC(=O)O4)[C@H]12 [Spironolactone, 7α-acetylthio-3-oxo-17α-pregn-4-ene-21,17-carbolactone] |  | 298.1 ± 168.0 | 285.1 ± 138.9 | 361.3 ± 169.3
